Results published in patent publication US11142559B2, “Glucagon derivative, conjugate thereof, composition comprising same, and therapeutic use thereof” (HANMI PHARM. CO., LTD, priority 2016, dated 2021).
At least one compound was matched to its structure with a doubt left.

System: high-fat diet-induced obesity mice
Assay: Combined administration in mice with high fat diet-induced obesity (SEQ ID NO: 37 conjugate)
Type: in vivo
Settings: 28 days, liraglutide 50 nmol/kg twice daily, exendin derivative 4.3 nmol/kg Q2D, plus SEQ ID NO: 37 conjugate 2.2 nmol/kg Q2D

CCCCCCCCCCCCCCCC(=O)N[C@@H](CCC(=O)NCCCC[C@H](NC(=O)[C@H](C)NC(=O)[C@H](C)NC(=O)[C@H](CCC(N)=O)NC(=O)CNC(=O)[C@H](CCC(=O)O)NC(=O)[C@H](CC(C)C)NC(=O)[C@H](Cc1ccc(O)cc1)NC(=O)[C@H](CO)NC(=O)[C@H](CO)NC(=O)[C@@H](NC(=O)[C@H](CC(=O)O)NC(=O)[C@H](CO)NC(=O)[C@@H](NC(=O)[C@H](Cc1ccccc1)NC(=O)[C@@H](NC(=O)CNC(=O)[C@H](CCC(=O)O)NC(=O)[C@H](C)NC(=O)[C@@H](N)Cc1cnc[nH]1)[C@@H](C)O)[C@@H](C)O)C(C)C)C(=O)N[C@@H](CCC(=O)O)C(=O)N[C@@H](Cc1ccccc1)C(=O)N[C@H](C(=O)N[C@@H](C)C(=O)N[C@@H](Cc1c[nH]c2ccccc12)C(=O)N[C@@H](CC(C)C)C(=O)N[C@H](C(=O)N[C@@H](CCCNC(=N)N)C(=O)NCC(=O)N[C@@H](CCCNC(=N)N)C(=O)NCC(=O)O)C(C)C)[C@@H](C)CC)C(=O)O [liraglutide] was tested, and the “decrease of body weight compared to that of vehicle” value was −22% and the “decrease of total cholesterol levels in the blood compared to that of vehicle” value was −40%.
